According to patent publication US9884122B2 (Philochem AG, priority 2014, dated 2018):
For some assays here: Strings that start with PEPTIDE1 are HELM notation: dots part the residues, brackets hold end groups and non-standard residues.

How the values were obtained:
[1] = general procedure: Fmoc solid-phase peptide synthesis; Fmoc-Cys(Trt) Tentagel; HBTU/HOBt/DIPEA; conditions: whole synthesis, scale 0.415 mmol
[2] = general procedure: Fmoc solid-phase peptide synthesis; pre-loaded Fmoc-Cys(Trt) on Tentagel resin (RAPP Polymere); HBTU/HOBt/DIPEA; conditions: conjugation step, determined by absorbance at 750 nm

Substance	isolated mass [1] [mg]	isolated yield [1] [%]	conjugation yield [2] [%]
CysAspArgAsp-Linker-AAZ	135	33	
PEPTIDE1{[AAZtrzVal].D.D.K.[PEG2N-IRDye750]}|PEPTIDE2{[AAZtrzVal].D.D}$PEPTIDE1,PEPTIDE2,4:R3-3:R2$$$V2.0			17
CysAspArgAsp-Linker-COOH	116	43	
